Measurements reported in PubChem BioAssay AID652243 (Drosophila RNAi Screening Center, 2013)
The deposit covers about 24,000 reagents; below is an unselected part of those with a known target gene and a result. Of all reagents, 246 (1%) were called active. 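Plates not normalised; calls are printed but the firefly/Renilla ratio behind them is not deposited; fold cut for lowering reported inconsistently.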 Raw values vary from plate to plate and are shown uncorrected. A number with no mark means an inactive call. The numbers tell different reagents against one gene apart. The record does not give: the amount of reagent.

- Test: 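Fly genes required for human androgen receptor driven transcription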 (primary screen)
- Cells: Drosophila S2R+ cells
- Reagents: long dsRNA against Drosophila genes
- Timing: 72 h (48 h, then 24 h hormone)
- Treatment: synthetic androgen R1881 at 10 nM for 24 h
- Detection: 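Per-well raw luminescence of the androgen-driven firefly reporter and of the Renilla control, two replicates each, without normalisation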
- Direction: firefly reporter light: higher = more light from androgen-responsive reporter; Renilla control light: higher = more constitutive control signal (cell number, transfection)
- Hit rule: 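Across duplicate plates, a knock-down whose log firefly/Renilla ratio shifted a set fold down or up from the GFP/LacZ control mean was a hit; the downward cut appears as both 1.5 and 3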
- Calls: active = hit: reporter lowered or raised; inactive = no hit

Gene	reagent no.	firefly reporter light, replicate 1	firefly reporter light, replicate 2	Renilla control light, replicate 1	Renilla control light, replicate 2
Treh	1	7.40e5	7.74e5	1.59e6	1.72e6
Treh	2	3.10e5	4.26e5	1.13e6	1.03e6
Septin5	1	1.29e6	1.02e6	1.99e6	1.76e6
Septin5	2	6.80e5	5.54e5	1.24e6	1.41e6
sas	1	1.11e5	1.41e5	2.96e6	2.70e6
CG9586	1	2.26e5	2.02e5	2.27e6	2.03e6
CG9586	2	2.78e5	3.17e5	6.72e5	8.27e5
CG9308	1	1.26e5	1.50e5	1.16e6	1.04e6
CG9308	2	6.69e5	5.66e5	1.91e6	1.33e6
CG16964	1	2.96e5	2.62e5	1.54e6	1.88e6
CG16964	2	4.73e5	4.64e5	6.60e5	4.93e5
Taf12	1	43403	82363	2.42e5	2.85e5
Taf12	2	3.97e5	3.95e5	1.11e6	9.56e5
f-cup	1	41434	80190	2.11e5	2.43e5
f-cup	2	4.43e5	4.28e5	9.96e5	1.30e6
CG13097	1	7.69e5	8.08e5	1.60e6	1.74e6
Ptpmeg2	1	1.24e5	2.21e5	2.32e6	3.01e6
Ptpmeg2	2	1.89e5	1.47e5	2.15e6	1.97e6
Ptpmeg2	3	5.52e5	4.45e5	1.38e6	1.06e6
Ptpmeg2	4	3.80e5	4.26e5	5.53e5	7.39e5
CG14810	1	4.85e5	6.74e5	6.14e5	4.37e5
CG14810	2	4.03e5	4.99e5	3.85e6	3.62e6
CG14810	3	9.37e5	1.28e6	5.45e5	7.88e5
CG34159	1	6.40e5	6.75e5	1.13e6	1.23e6
